We go through 17 compounds from PubChem BioAssay AID2685 (National Center for Advancing Translational Sciences (NCATS), 2010).

Some of the results follow. Shown are side measurements of this screen, not its main read-out; they come without a call. Most of these compounds were active or inconclusive in the main read-out, so they are no random draw. Words in brackets tell the shape of the fitted curve; partial curves, single points and poor fits give uncertain potencies.

The test is described as follows: qHTS Assay for Lipid Storage Modulators in Drosophila S3 Cells.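 On cell number change: cells counted by Cell Tracker Red CMTPX staining in the red channel.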 The settings on record: BODIPY lipid droplet fluorescence, 18-24 h; for cell number change: measured here: cell count max response, cells fed with added oleic acid. Put shortly: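 Drosophila S3 cells got compounds at several concentrations plus oleic acid (400 uM solution). Laser-scanning cytometry with 488 nm excitation read lipid droplets at 500-530 nm and cells at 575-640 nm. Percent activity was relative to 20 uM Triacsin C.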
For orientation: In qHTS, concentration-response curves come from the screen itself.

[1] abbreviates: measured here: cell number channel AC50, cells fed with added oleic acid.
Where [2] appears, read: measured here: lipid fluorescence (Fed channel) AC50, cells fed with added oleic acid.

As for `CCN(CC)CC(=O)Nc1sc(C)cc1C(=O)c1ccccc1`, the cell number change turned out to be 147%. The concentration at half-maximal activity (AC50) under setting [1] is 18.4 µM [rising, partial curve]. Besides, under setting [2], the AC50 is 29.1 µM [rising, single point].
On to `S=C(Nc1ccccc1)N1N=CCC1c1ccccc1` (stereo not drawn), for which the cell number change is 25%. Further, under setting [2], the AC50 is 2.31 µM [rising, partial curve].
On to `COc1cc(NC(=S)N2CCN(S(=O)(=O)c3ccc(F)cc3)CC2)cc(OC)c1`, for which the cell number change was -12.9%. Besides, the AC50 under setting [2] is 29.1 µM [falling, single point].
With `c1ccc(-c2nnc(-c3ccccn3)s2)nc1`, the cell number change was -1.91%.
On the same count and under the same terms, for `CCCn1c(-c2ccncc2)n[nH]c1=S` the value was 22.4%.
`O=C(NCc1ccco1)c1ccc2c(c1)N(Cc1ccc(Cl)cc1)CCS2`: the AC50 under setting [1] is 0.082 µM [rising, full curve, poor fit].
With `CC(=O)Nc1ccc(/C=N/NC(=O)c2cc3cc(C)ccc3nc2C)cc1`, the cell number change was determined as 47.5%. Under setting [1], the AC50 was 0.116 µM [rising, full curve, poor fit].
Take `O=C(NCC(=O)N(CCc1ccccc1)C(C(=O)NC1CCCC1)c1cccnc1)c1ccco1` (stereo not drawn): the AC50 under setting [1] is 0.651 µM [rising, full curve] and the half-maximal activity concentration (AC50) under setting [2] is 0.517 µM [rising, full curve].
In the case of `CCOC(=O)c1cc(C)sc1/N=C/C1C(=O)CCCC1=O`, the cell number change was determined as 6.93%. For the same compound, the AC50 under setting [2] is 16.4 µM [rising, partial curve].
Turning to `COc1ccc(NC(=O)Cn2nnc3ccccc32)c([N+](=O)[O-])c1`, the cell number change came out at 68.8%. Further, under setting [1], the AC50 is 2.59 µM [rising, full curve]. The half-maximal activity concentration (AC50) under setting [2] was 2.59 µM [rising, full curve].
For `COc1ccc(CN2CCC(n3nccc3NC(=O)C3CC3)CC2)c(OC)c1OC`, the cell number change amounted to 16.1%. The AC50 under setting [2] is 4.11 µM [rising, full curve].
On to `CCOC(=O)Nc1ccc2c(c1)N(C(=O)CCN(CC)CC)c1ccccc1S2=O` (stereo not drawn), for which the cell number change was -59.8%. For the same compound, the AC50 under setting [1] was 29.1 µM [falling, single point].
In the case of `COc1ccc(NC(=O)COC(=O)CC2Sc3ccccc3NC2=O)cc1` (stereo not drawn), the cell number change stood at 2.21%.
With `Cc1ccc(NC(=O)COC(=O)C2CC2(Cl)Cl)cc1C` (stereo not drawn), the cell number change was 21.3%. Besides, the AC50 under setting [2] is 1.46 µM [falling, partial curve, poor fit].
In the case of `Cc1ccc(SCc2[nH]nc3c2C2(C(=O)N(C)c4ccccc42)C(C#N)=C(N)O3)cc1` (stereo not drawn), the cell number change is 27.5%. Moreover, the AC50 under setting [2] was 5.17 µM [falling, partial curve].
On to `O=C(Nc1cccc(S(=O)(=O)NC2=NCCCCC2)c1)c1cccnc1Cl`, for which the cell number change was -36.1%. In addition, the concentration at half-maximal activity (AC50) under setting [1] was 7.31 µM [falling, partial curve, poor fit]. Under setting [2], the AC50 was 14.6 µM [falling, partial curve].
Take `CSCC[C@H](NC(=O)OCc1ccccc1)C(=O)O`: the cell number change was -8.49%. In addition, the AC50 under setting [2] is 23.1 µM [falling, partial curve].

Broadly, the AC50 is the concentration giving half of the maximal activity seen. A low value points to activity at low concentration.
